According to the supplement of paper PMC10849652:
The other results are listed elsewhere or left out.

Sequences of proteins named here, by UniProt entry; tags and fusion partners are left off. A change or cut given only in a name is not applied to a line headed by its entry.
UniProt P60953, whole entry, looked up: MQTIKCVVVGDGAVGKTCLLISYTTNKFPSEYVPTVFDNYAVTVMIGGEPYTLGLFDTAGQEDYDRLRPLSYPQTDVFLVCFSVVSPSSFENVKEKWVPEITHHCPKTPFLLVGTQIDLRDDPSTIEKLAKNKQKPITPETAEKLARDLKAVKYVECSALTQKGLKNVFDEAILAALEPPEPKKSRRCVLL
UniProt Q16204: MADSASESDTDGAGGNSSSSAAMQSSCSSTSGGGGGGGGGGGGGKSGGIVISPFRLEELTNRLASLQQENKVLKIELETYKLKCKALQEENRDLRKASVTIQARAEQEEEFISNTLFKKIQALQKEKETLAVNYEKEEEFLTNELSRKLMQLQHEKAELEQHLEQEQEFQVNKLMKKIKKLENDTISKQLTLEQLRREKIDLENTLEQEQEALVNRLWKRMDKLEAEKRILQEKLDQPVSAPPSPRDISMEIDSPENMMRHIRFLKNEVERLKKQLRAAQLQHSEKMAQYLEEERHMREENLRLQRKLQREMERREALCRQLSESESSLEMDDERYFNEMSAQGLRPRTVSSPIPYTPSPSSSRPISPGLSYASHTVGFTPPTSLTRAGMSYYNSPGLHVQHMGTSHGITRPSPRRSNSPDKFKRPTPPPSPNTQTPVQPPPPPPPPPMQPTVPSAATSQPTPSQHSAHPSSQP
UniProt Q9HA77: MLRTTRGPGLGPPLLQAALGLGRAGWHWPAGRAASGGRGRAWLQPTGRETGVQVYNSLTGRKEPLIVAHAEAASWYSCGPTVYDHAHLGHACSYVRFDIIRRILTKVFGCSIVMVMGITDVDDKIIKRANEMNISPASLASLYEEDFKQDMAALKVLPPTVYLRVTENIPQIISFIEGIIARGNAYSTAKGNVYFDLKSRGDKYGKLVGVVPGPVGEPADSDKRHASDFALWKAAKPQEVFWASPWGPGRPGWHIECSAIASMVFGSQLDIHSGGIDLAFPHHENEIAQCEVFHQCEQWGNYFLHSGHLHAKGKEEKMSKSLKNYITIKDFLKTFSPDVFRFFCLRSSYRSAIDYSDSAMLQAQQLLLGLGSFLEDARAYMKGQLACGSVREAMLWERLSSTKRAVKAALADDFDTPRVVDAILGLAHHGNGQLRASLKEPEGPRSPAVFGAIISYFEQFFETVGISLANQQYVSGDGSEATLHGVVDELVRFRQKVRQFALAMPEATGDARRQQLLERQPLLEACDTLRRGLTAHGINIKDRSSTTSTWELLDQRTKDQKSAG
UniProt Q9BV29: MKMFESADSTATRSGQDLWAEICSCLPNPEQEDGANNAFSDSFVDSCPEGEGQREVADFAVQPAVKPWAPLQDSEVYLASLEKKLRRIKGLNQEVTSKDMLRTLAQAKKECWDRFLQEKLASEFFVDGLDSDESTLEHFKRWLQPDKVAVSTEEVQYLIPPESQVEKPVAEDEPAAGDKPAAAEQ
UniProt Q9Y5K6, whole entry, looked up: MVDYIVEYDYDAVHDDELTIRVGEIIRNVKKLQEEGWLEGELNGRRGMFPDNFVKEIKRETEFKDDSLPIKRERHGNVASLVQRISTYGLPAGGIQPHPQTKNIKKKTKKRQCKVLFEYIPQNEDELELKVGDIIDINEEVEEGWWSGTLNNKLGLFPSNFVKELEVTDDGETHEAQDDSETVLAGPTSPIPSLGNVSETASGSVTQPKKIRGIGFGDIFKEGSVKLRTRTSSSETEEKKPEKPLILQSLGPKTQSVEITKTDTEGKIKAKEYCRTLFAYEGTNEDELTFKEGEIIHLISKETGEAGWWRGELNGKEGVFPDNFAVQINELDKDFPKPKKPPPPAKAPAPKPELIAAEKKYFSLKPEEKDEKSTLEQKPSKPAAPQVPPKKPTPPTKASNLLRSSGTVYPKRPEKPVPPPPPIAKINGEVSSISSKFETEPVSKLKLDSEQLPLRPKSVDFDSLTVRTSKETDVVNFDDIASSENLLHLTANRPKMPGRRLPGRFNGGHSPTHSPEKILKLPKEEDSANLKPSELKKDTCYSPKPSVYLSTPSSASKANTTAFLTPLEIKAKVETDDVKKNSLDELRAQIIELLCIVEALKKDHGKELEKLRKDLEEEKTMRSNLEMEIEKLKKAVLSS
UniProt Q9GZT6: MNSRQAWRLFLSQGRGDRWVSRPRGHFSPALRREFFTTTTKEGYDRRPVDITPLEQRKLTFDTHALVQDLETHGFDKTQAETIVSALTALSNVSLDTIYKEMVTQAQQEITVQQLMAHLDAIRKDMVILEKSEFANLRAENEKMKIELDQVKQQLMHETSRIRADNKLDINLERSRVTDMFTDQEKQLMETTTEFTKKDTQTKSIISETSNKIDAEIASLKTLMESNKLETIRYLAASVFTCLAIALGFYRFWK
UniProt O14618: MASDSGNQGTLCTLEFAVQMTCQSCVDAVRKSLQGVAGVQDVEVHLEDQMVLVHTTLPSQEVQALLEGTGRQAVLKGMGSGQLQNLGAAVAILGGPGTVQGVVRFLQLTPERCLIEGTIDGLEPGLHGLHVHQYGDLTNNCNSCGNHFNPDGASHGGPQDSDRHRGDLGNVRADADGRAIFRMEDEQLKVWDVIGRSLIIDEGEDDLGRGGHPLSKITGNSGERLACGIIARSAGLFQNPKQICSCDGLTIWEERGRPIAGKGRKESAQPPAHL
UniProt P78371: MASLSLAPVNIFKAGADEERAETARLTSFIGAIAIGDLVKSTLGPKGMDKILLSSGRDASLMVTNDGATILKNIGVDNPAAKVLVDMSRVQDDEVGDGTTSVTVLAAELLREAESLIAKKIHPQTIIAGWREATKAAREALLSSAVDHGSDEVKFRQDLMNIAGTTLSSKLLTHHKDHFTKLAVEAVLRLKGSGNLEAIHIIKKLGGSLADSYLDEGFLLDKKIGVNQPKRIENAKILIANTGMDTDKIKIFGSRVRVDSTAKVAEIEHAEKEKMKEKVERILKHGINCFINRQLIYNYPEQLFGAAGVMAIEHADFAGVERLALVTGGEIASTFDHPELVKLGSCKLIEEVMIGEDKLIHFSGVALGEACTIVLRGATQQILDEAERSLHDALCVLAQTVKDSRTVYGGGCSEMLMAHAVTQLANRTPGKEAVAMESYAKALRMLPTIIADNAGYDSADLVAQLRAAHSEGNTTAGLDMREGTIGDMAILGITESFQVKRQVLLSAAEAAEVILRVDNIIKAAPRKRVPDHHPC
UniProt Q8IWD4: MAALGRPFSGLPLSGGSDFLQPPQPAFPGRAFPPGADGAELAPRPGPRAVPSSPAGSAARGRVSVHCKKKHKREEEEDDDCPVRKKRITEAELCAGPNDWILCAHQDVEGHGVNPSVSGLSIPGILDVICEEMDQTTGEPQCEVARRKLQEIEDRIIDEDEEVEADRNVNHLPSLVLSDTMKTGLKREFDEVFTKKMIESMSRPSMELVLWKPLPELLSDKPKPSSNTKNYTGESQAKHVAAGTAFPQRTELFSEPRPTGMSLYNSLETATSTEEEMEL
UniProt Q08722, whole entry, looked up: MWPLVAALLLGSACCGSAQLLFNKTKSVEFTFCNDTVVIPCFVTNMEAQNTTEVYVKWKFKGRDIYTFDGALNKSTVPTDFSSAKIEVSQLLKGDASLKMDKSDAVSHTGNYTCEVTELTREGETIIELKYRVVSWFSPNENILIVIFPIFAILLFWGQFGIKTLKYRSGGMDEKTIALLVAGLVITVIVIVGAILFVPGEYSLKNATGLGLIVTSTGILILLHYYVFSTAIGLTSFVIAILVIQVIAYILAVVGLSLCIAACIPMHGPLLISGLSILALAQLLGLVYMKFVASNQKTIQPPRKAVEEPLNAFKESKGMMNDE
UniProt P19256, whole entry, looked up: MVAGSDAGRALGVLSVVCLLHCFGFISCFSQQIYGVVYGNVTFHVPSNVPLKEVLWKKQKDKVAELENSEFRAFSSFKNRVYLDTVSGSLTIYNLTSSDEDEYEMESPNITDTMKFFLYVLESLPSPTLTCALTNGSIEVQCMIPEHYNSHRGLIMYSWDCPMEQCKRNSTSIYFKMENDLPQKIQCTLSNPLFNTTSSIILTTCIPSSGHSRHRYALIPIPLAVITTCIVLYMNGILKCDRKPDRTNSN
UniProt Q8N4J0: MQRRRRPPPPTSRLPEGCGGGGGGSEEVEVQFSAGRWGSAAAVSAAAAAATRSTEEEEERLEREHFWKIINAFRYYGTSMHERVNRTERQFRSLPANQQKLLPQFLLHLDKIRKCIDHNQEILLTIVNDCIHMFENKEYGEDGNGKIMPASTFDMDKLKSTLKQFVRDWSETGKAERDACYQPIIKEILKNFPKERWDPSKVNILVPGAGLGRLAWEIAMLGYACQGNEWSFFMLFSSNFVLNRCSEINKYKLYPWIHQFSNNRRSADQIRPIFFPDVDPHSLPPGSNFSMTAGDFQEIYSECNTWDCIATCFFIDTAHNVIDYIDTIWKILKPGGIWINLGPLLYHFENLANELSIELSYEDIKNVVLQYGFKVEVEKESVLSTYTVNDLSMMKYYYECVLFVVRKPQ
UniProt Q5T0F9: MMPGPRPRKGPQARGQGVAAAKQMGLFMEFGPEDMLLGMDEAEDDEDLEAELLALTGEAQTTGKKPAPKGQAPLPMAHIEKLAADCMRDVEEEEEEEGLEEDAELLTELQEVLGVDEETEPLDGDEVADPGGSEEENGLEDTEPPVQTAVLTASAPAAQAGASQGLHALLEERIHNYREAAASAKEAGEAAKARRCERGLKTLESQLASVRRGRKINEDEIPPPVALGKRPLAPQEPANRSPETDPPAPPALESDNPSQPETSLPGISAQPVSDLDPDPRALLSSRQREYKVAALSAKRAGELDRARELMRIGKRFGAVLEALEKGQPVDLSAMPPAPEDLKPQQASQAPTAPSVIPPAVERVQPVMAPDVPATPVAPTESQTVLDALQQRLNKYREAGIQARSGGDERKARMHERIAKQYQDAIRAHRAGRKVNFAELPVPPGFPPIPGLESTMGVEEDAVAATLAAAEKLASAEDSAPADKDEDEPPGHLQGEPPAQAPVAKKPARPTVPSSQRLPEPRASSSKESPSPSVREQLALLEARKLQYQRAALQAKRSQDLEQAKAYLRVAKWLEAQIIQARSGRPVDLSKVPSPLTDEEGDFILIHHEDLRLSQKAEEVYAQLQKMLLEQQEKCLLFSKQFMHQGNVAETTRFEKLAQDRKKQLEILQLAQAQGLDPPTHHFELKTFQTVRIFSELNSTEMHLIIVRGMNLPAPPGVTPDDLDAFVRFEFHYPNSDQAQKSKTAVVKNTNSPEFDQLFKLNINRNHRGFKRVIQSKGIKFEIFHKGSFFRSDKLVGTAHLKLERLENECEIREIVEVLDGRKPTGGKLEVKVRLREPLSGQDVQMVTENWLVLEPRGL
UniProt Q99832: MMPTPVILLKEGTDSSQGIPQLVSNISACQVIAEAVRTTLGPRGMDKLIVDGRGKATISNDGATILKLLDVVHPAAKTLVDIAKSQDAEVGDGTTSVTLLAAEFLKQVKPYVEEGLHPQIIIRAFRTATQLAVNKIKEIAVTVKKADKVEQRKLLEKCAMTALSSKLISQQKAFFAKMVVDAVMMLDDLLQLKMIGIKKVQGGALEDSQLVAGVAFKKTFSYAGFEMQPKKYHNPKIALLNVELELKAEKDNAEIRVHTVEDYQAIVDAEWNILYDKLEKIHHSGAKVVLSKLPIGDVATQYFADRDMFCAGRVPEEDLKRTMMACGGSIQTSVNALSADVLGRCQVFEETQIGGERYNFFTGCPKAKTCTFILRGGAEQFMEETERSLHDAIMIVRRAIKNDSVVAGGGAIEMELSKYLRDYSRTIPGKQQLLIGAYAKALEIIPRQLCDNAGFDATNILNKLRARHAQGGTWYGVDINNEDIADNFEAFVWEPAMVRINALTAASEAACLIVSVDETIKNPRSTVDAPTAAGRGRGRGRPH
UniProt Q6P4E1: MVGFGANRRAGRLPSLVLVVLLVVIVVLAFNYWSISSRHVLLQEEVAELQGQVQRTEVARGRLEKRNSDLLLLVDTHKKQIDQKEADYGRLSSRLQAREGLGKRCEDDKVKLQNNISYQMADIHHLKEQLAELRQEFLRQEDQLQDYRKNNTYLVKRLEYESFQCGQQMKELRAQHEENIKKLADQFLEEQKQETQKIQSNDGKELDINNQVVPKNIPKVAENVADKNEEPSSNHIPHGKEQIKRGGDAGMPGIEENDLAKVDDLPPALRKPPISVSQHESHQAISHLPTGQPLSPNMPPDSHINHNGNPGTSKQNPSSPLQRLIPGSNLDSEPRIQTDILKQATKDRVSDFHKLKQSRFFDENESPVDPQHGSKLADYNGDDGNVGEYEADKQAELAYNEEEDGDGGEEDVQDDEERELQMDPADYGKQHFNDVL

Columns and labels:
Experiment in all cases: log2 fold change, soluble protein after heating vs DMSO (PISA); higher = thermal stabilisation; K562 cells, 10 uM, 30 min; active = over 0.2 and 3.5 SD of the protein, either way, in both replicates (recomputed)
[1] = compound: CC[C@@H]1C(=O)N(C)c2cnc(Nc3ccc(C(=O)NC4CCN(C)CC4)cc3OC)nc2N1C1CCCC1
How it was run: (§1)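 K562 cells (2×10^6 cells/mL) were treated with 10 μM compound for 30 min, and aliquots were heated for 3 min over 48°C-58°C. Pooled aliquots were extracted in PBS with 0.5% NP-40 at 4°C, and the supernatant after 21,000xg for 90 min was measured by TMTpro 16plex LC-MS/MS with channel sums equalised. Reported thermal stability, relative to control samples and from duplicates, is a log2 fold change.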

[2] = compound: CC[C@@H]1C(=O)N(C)c2cnc(Nc3ccc(C(=O)N[C@H]4CC[C@H](N5CCN(CC6CC6)CC5)CC4)cc3OC)nc2N1C(C)C [volasertib]
How it was run: as §1

[3] = compound: CC[C@H](C)N1C=C(C2=C(C=C(C=C21)C3=CN=C(C=C3)N4CCNCC4)C(=O)NCC5=C(C=C(NC5=O)C)C)C
How it was run: as §1

[4] = compound: CC[C@H](C)[C@@H](C(=O)N[C@@H]([C@@H](C)O)C(=O)N[C@@H](CC(C)C)C(=O)[C@]1(CO1)C)NC(=O)[C@H]([C@@H](C)CC)N(C)C(=O)C [epoxomicin]
How it was run: as §1

[5] = compound: CCn1c(C(=O)N(C2CC2)C2CC2)cc2c3c(ncn3C)c(Nc3cc(C)n(C)n3)nc21
How it was run: as §1

[6] = compound: CCn1cc(-c2ccnc3[nH]c(-c4cccc(CN(C)C)c4)cc23)c(-c2ccc(NC(=O)N(C)C)cc2)n1
How it was run: as §1

[7] = compound: CN(C)CC(=O)Nc1ccc2[nH]c(=O)c3ccccc3c2c1
How it was run: as §1

[8] = compound: CN(CCOC1=CC=C(C=C1)C[C@H]2C(=O)NC(=O)S2)C3=CC=CC=N3 (racemic) [rosiglitazone]
How it was run: as §1

[9] = compound: CN1C2=C(C3=C1C(=O)N(N=C3)CC4=CC(=CC=C4)N)SC(=C2)S(=O)C
How it was run: as §1

[10] = compound: CN1CCC(CNc2ccc3ncc(-c4cccc(OC(F)(F)F)c4)n3n2)CC1
How it was run: as §1

[11] = compound: CN1CCN(CCOc2cc(OC3CCOCC3)c3c(Nc4c(Cl)ccc5c4OCO5)ncnc3c2)CC1 [saracatinib]
How it was run: as §1

[12] = compound: CN1CCN(c2nc(C3=C(c4c[nH]c5ccccc45)C(=O)NC3=O)c3ccccc3n2)CC1 [sotrastaurin]
How it was run: as §1

[13] = compound: CN1CC[C@H](c2c(O)cc(O)c3c(=O)cc(-c4ccccc4Cl)oc23)[C@H](O)C1 [alvocidib]
How it was run: as §1

[14] = compound: CN1CCc2c(c3ccccc3n2Cc2ccc(C(=O)NO)cc2)C1 [Tubastatin A]
How it was run: as §1

[15] = compound: CNC(=O)C1=CC=CC=C1NC2=NC(=NC=C2Cl)NC3=C(C=C(C=C3)N4CCOCC4)OC
How it was run: as §1

[16] = compound: CNC(=O)c1ccc(Nc2ncc(C(F)(F)F)c(NCc3nccnc3N(C)S(C)(=O)=O)n2)cc1 [defactinib]
How it was run: as §1

[17] = compound: CNCc1ccc(-c2[nH]c3cc(F)cc4c3c2CCNC4=O)cc1 [rucaparib]
How it was run: as §1

[18] = compound: CNc1nc(-c2ccc3c(N)n[nH]c3c2)cc(N2C[C@@H](C(=O)NC3CCCCC3)CC[C@H]2C)n1
How it was run: as §1

[19] = compound: COC(=O)N[C@@H](C)CNc1nccc(-c2cn(C(C)C)nc2-c2cc(Cl)cc(NS(C)(=O)=O)c2F)n1 [encorafenib]
How it was run: as §1

[20] = compound: COC(=O)[C@H](CCSC)NC(=O)C1=C(C=C(C=C1)NC[C@H](CS)N)C2=CC=CC=C2
How it was run: as §1

Measured: log2 fold change

CDC42 (UniProt P60953)
inactive: [1] -0.175 | [2] 0.064 | [3] -0.035 | [4] 0.182 | [5] 0 | [6] -0.049 | [7] -0.039 | [8] -0.084 | [9] -0.098 | [10] 0.062 | [11] 0.02 | [12] 0.039 | [13] -0.106 | [14] -0.04 | [15] 0.129 | [16] 0.028 | [17] 0.075 | [18] 0.012 | [19] -0.201 | [20] 0.076

CCDC6 (UniProt Q16204)
inactive: [1] 0.022 | [2] -0.019 | [3] 0.006 | [4] -0.004 | [5] 0.01 | [6] -0.01 | [7] -0.007 | [8] 0.015 | [9] -0.074 | [10] -0.009 | [11] -0.009 | [12] 0.015 | [13] -0.016 | [14] 0.017 | [15] -0.021 | [16] -0.041 | [17] -0.061 | [18] -0.022 | [19] -0.031 | [20] 0.007

CCT8 (UniProt P50990)
inactive: [1] -0.004 | [2] -0.026 | [3] 0.005 | [4] 0.029 | [5] -0.001 | [6] 0.026 | [7] -0.008 | [8] 0.007 | [9] -0.041 | [10] -0.018 | [11] 0.007 | [12] 0.014 | [13] 0.008 | [14] -0.001 | [15] -0.03 | [16] 0.004 | [17] -0.045 | [18] 0.009 | [19] 0.014 | [20] 0.001

CARS2 (UniProt Q9HA77)
inactive: [1] 0.016 | [2] -0.017 | [3] -0.053 | [4] -0.03 | [5] 0.009 | [6] -0.036 | [7] -0.022 | [8] 0.048 | [9] -0.019 | [10] 0.035 | [11] 0.037 | [12] 0.065 | [13] -0.026 | [14] -0.024 | [15] -0.022 | [16] -0.01 | [17] 0.056 | [18] 0.022 | [19] 0.027 | [20] 0.017

CCDC32 isoform 2 (UniProt Q9BV29)
inactive: [1] 0.059 | [2] 0.048 | [3] 0.088 | [4] 0.072 | [5] 0.051 | [6] 0.012 | [7] -0.011 | [8] 0 | [9] 0.039 | [10] 0.056 | [11] -0.031 | [12] -0.008 | [13] -0.013 | [14] 0.086 | [15] -0.069 | [16] 0.025 | [17] -0.012 | [18] -0.086 | [19] -0.009 | [20] 0.066

CD2AP (UniProt Q9Y5K6)
inactive: [1] -0.047 | [2] -0.108 | [3] 0.023 | [4] 0.038 | [5] -0.019 | [6] -0.027 | [7] -0.001 | [8] 0.014 | [9] -0.043 | [10] -0.17 | [11] -0.004 | [12] 0.017 | [13] -0.034 | [14] -0.02 | [15] 0.011 | [16] -0.031 | [17] -0.001 | [18] 0 | [19] 0.009 | [20] 0.027

Taken from the results shown (2 entries):
CCT8 (UniProt P50990)
inactive: [1] -0.004 | [2] -0.026 | [3] 0.005 | [4] 0.029 | [5] -0.001 | [6] 0.026 | [7] -0.008 | [8] 0.007 | [9] -0.041 | [10] -0.018 | [11] 0.007 | [12] 0.014 | [13] 0.008 | [14] -0.001 | [15] -0.03 | [16] 0.004 | [17] -0.045 | [18] 0.009 | [19] 0.014 | [20] 0.001

CARS2 (UniProt Q9HA77)
inactive: [1] 0.016 | [2] -0.017 | [3] -0.053 | [4] -0.03 | [5] 0.009 | [6] -0.036 | [7] -0.022 | [8] 0.048 | [9] -0.019 | [10] 0.035 | [11] 0.037 | [12] 0.065 | [13] -0.026 | [14] -0.024 | [15] -0.022 | [16] -0.01 | [17] 0.056 | [18] 0.022 | [19] 0.027 | [20] 0.017

More records:

CCDC90B (UniProt Q9GZT6)
inactive: [1] 0.007 | [2] -0.007 | [3] -0.015 | [4] 0.039 | [5] -0.008 | [6] -0.008 | [7] -0.047 | [8] 0.06 | [9] 0.013 | [10] 0.094 | [11] 0 | [12] 0.137 | [13] 0.025 | [14] 0.009 | [15] 0.012 | [16] 0.013 | [17] -0.022 | [18] -0.016 | [19] -0.033 | [20] -0.013

CCS (UniProt O14618)
inactive: [1] 0.001 | [2] 0.007 | [3] 0.05 | [4] 0.017 | [5] -0.007 | [6] -0.005 | [7] -0.025 | [8] 0.006 | [9] -0.081 | [10] -0.091 | [11] 0 | [12] 0.101 | [13] -0.052 | [14] -0.057 | [15] -0.015 | [16] -0.018 | [17] -0.014 | [18] 0.01 | [19] -0.005 | [20] 0.039

CCT2 (UniProt P78371)
inactive: [1] -0.006 | [2] 0.011 | [3] 0.001 | [4] 0.019 | [5] 0.013 | [6] 0.031 | [7] 0.123 | [8] 0.007 | [9] -0.036 | [10] -0.024 | [11] -0.004 | [12] -0.003 | [13] 0.01 | [14] -0.001 | [15] -0.037 | [16] 0.009 | [17] -0.037 | [18] 0.013 | [19] 0.02 | [20] -0.014

CCDC117 (UniProt Q8IWD4)
inactive: [1] 0.001 | [2] 0.068 | [3] -0.17 | [4] 0.028 | [5] 0.115 | [6] -0.053 | [7] -0.002 | [8] 0.043 | [9] 0.026 | [10] -0.194 | [11] 0 | [12] 0.041 | [13] -0.04 | [14] 0.035 | [15] -0.077 | [16] -0.112 | [17] 0.001 | [18] -0.01 | [19] 0.015 | [20] 0.085

CD47 (UniProt Q08722)
inactive: [1] 0.114 | [2] 0.036 | [3] -0.104 | [4] -0.019 | [5] 0.015 | [6] -0.006 | [7] -0.019 | [8] -0.034 | [9] -0.054 | [10] 0.221 | [11] -0.023 | [12] 0.033 | [13] 0.04 | [14] -0.045 | [15] -0.062 | [16] -0.013 | [17] -0.079 | [18] 0.016 | [19] 0.027 | [20] 0.007

CD58 (UniProt P19256)
inactive: [1] 0.096 | [2] 0.044 | [3] -0.026 | [4] -0.045 | [5] 0.07 | [6] 0.013 | [7] -0.002 | [8] 0.004 | [9] -0.011 | [10] 0.021 | [11] 0.01 | [12] 0.067 | [13] -0.012 | [14] -0.117 | [15] -0.033 | [16] 0.011 | [17] 0.012 | [18] 0.023 | [19] -0.006 | [20] 0.023

CARNMT1 (UniProt Q8N4J0)
inactive: [1] -0.012 | [2] -0.057 | [3] 0.015 | [4] -0.018 | [5] 0 | [6] -0.074 | [7] 0.023 | [8] 0.026 | [9] -0.053 | [10] 0.024 | [11] 0.052 | [12] 0.043 | [13] -0.005 | [14] -0.056 | [15] 0.043 | [16] -0.052 | [17] -0.035 | [18] -0.022 | [19] 0.004 | [20] -0.052

CC2D1B isoform 2 (UniProt Q5T0F9)
inactive: [1] -0.041 | [2] -0.115 | [3] 0.051 | [4] -0.047 | [5] -0.039 | [6] -0.007 | [7] 0.011 | [8] 0.048 | [9] 0.118 | [10] -0.121 | [11] 0.037 | [12] -0.023 | [13] -0.062 | [14] -0.025 | [15] -0.048 | [16] -0.079 | [17] -0.021 | [18] 0.027 | [19] 0.032 | [20] 0.021

CCT7 (UniProt Q99832)
inactive: [1] -0.02 | [2] 0.035 | [3] 0 | [4] 0.053 | [5] -0.015 | [6] 0.032 | [7] -0.012 | [8] -0.014 | [9] -0.032 | [10] -0.005 | [11] 0.059 | [12] -0.015 | [13] 0.004 | [14] -0.025 | [15] -0.006 | [16] 0.006 | [17] -0.038 | [18] 0.005 | [19] 0.02 | [20] 0.003

CASC4 (UniProt Q6P4E1)
inactive: [1] 0.094 | [2] 0.027 | [3] -0.042 | [4] -0.029 | [5] -0.021 | [6] 0.051 | [7] -0.045 | [8] 0.001 | [9] -0.019 | [10] 0.054 | [11] 0.006 | [12] 0.047 | [13] 0 | [14] -0.067 | [15] 0.051 | [16] -0.017 | [17] -0.049 | [18] -0.041 | [19] 0.027 | [20] 0.013
